The text below walks through data of PMC9462471.

Protein sequences, listed by entry. Tags and fused reporters are not part of them. Residues count along the entry.
UniProt P35222: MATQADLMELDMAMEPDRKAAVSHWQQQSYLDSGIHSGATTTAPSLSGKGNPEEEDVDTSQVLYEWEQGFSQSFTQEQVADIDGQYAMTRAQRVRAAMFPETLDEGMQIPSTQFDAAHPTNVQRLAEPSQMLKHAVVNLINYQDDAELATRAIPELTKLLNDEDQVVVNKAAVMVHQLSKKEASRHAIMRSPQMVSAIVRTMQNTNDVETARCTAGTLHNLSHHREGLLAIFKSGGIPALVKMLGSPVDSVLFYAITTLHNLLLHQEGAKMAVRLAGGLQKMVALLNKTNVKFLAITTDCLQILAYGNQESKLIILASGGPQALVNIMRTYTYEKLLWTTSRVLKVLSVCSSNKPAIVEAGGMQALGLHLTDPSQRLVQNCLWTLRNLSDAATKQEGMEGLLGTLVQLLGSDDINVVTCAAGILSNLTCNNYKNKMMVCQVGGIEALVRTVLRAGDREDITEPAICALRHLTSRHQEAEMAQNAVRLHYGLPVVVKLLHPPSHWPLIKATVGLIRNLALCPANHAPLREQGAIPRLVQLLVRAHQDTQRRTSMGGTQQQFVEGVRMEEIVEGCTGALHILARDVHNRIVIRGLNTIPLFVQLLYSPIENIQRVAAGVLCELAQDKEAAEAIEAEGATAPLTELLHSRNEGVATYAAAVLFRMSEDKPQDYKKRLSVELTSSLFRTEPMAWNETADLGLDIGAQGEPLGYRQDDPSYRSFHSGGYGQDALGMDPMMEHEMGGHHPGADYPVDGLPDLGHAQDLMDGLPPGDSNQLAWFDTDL
UniProt Q9Y219, residues 24-1238: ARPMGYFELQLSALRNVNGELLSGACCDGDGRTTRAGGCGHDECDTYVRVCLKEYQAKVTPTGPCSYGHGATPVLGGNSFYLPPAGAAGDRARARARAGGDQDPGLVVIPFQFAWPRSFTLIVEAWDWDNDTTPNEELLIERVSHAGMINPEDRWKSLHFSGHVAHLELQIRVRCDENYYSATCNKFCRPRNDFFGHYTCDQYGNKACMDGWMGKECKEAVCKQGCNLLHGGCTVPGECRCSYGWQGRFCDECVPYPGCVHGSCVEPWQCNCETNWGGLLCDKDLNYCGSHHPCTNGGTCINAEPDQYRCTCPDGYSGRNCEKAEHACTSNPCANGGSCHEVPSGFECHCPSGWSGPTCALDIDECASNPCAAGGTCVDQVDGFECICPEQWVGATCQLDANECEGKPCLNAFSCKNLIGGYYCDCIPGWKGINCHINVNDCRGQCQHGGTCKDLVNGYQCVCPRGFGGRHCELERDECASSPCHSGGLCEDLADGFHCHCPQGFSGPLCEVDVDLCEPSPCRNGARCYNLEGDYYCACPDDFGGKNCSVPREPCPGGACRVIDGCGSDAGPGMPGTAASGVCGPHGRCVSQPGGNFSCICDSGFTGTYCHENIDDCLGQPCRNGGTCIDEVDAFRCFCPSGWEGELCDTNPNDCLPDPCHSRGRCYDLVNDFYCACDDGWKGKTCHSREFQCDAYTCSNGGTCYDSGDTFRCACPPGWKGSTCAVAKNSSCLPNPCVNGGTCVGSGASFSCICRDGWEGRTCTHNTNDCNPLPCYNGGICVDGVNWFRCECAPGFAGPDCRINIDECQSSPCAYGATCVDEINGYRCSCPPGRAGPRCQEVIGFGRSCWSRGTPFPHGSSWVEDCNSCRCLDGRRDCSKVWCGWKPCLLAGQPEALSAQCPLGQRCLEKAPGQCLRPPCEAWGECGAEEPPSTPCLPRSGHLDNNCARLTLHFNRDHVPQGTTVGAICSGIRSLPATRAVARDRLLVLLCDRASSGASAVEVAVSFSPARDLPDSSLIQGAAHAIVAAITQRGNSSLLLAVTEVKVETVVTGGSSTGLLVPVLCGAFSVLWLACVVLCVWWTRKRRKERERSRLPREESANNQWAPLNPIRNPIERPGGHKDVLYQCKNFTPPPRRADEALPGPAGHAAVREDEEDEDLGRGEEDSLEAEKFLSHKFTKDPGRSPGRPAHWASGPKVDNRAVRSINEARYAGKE

In the assay the target is β-catenin (CTNNB1) (human (endogenous in human bronchial basal cell ALI cultures)) (UniProt P35222). Nature of the assay: co-IP; day 8 ALI culture RIPA lysate; immunoprecipitation with an N-terminus-specific CTNNB1 antibody on Pierce protein magnetic beads at 4°C, washed 3 times with RIPA buffer; precipitate blotted with a JAG2 N-terminus-specific antibody; three samples.

No constants are given. Whether binding was seen depends on the method and setting. In cells and extracts the contact can be indirect. Some entries that bind do so weakly or less than the wild type.

For “Jagged2 (JAG2) (from UniProt Q9Y219 24-1238) (ligand)”, the binding result is listed as “binds”.
